In all, about 300,000 compounds went through this assay and about 5,400 (1.8%) were called active. This list was built around the results that the source calls inconclusive (neither active nor inactive); the mix of calls is not that of the screen. Calls come from the whole dose curve; tested in HEK293 cells. Where the call is inconclusive, the potency comes from a doubtful curve fit.
Experiment: qHTS for inhibitors of binding or entry into cells for Marburg Virus
Conditions: Marburg virus pseudotyped entry inhibition, cell reporter; activity change, negative = inhibition: at 37.8 µM (top of the series) unless noted
% is set by controls: 0 for no effect and ±100 for the full control effect; potency is the fitted concentration of half-maximal effect.

Structure (SMILES)	activity change, negative = inhibition	Potency
COc1ccc(NC(=O)c2oc3ccccc3c2NC(=O)Cc2coc3c(C)c(C)ccc23)cc1	inactive: -17.8% [at 46.1 µM]	
CCOC(=O)N1CCc2c(sc3c2c(=O)n(-c2ccc(Cl)cc2)c(=O)n3CC(C)C)C1	inactive: 8.77% [at 46.1 µM]	
NS(=O)(=O)c1ccc(CNC(=O)c2cc(=O)c3ccccc3o2)cc1	inactive: -6.95% [at 46.1 µM]	
Cc1ccccc1Oc1nc(-c2ccccn2)nc2ccccc12		inconclusive: 11.2 µM [inhibitor, partial curve, poor fit]
CCC(=O)c1ccc(OCC(O)CNC(C)c2ccccc2)cc1 (stereo not given)		inconclusive: 17.8 µM [inhibitor, single point]
Cc1cc(-c2cccnc2)c(C#N)c(SCc2cccc(F)c2)n1		inconclusive: 29.1 µM [inhibitor, single point]
COCCNC(=O)c1ccc(CS(=O)(=O)c2ccc(C)cc2)o1	inactive: -14.3%	
Cn1nc(C(F)(F)F)c2cc(C(=O)Nc3ccc(F)cc3)sc21	inactive: -21.5% [at 46.1 µM]	
O=C(NC(=S)NC1CCCc2ccccc21)c1ccc(F)cc1 (stereo not given)		inconclusive: 11.2 µM [inhibitor, partial curve, poor fit]
Cc1ccc(S(=O)(=O)Nc2ccc(SC(F)F)cc2)c(C)c1	inactive: -12.3%	
Clc1cccc(N2CCNCC2)c1		inconclusive: 1.41 µM [inhibitor, partial curve]
C=CCc1ccc(OCc2ccc(C(=O)OC)o2)c(OC)c1		inconclusive: 6.31 µM [activator, partial curve, poor fit]
CCCCC(CCCC)=N/N=C/c1c(O)n(CC)c2cc(C3=NNC(=O)CC3)ccc12		inconclusive: 1.12 µM [inhibitor, partial curve, poor fit]
N#C/C(=N\Nc1ccc(S(=O)(=O)N2CCOCC2)cc1)C(N)=S	inactive: 5.74% [at 46.1 µM]	
Cn1cc(Cl)nc1[C@@H](O)c1ccccc1	inactive: 27.6%	
CCOC(=O)CSc1ccc(-c2nc3cc(C)c(C)cc3[nH]2)cn1		inconclusive: 2.06 µM [activator, partial curve, poor fit]
Cn1c(SCc2ccc(C#N)cc2Cl)nc2ccccc21	inactive: -25.4%	
CCCn1c(SCC(=O)Nc2cccc(C)n2)nc2c1c(=O)n(C)c(=O)n2C		inconclusive: 35.5 µM [inhibitor, single point]
O=C(NCC1CCCO1)c1cc(S(=O)(=O)N2CCCC2)c(Cl)cc1Cl (stereo not given)		inconclusive: 3.98 µM [inhibitor, partial curve, poor fit]
COc1ccc(-c2csc(=Nc3ccccc3)n2CCO)cc1F		inconclusive: 35.5 µM [inhibitor, single point]
O=C(N/N=C/C=C/c1ccco1)c1cccs1	inactive: 12.6% [at 46.1 µM]	
COc1ccc2oc(C(=O)Nc3cccc(S(=O)(=O)N4CCOCC4)c3)c(C)c2c1		inconclusive: 0.562 µM [inhibitor, full curve, poor fit]
CC(C)c1cc(CN2CCN(CCC#N)CC2)cc(C(C)C)c1O	inactive: 2.49%	
COc1cc(-c2nnc(-c3cc(-c4ccccc4)nc4ccccc34)o2)cc(OC)c1OC	inactive: 0.559% [at 46.1 µM]	

Structure (SMILES)	activity change, negative = inhibition	Potency
O=C(O)Cn1c(O)c(C=Nc2ccccc2)sc1=S		inconclusive: 4.11 µM [activator, full curve]
CCN(CC)C(=O)c1ccc(NC(=O)c2cccc(S(=O)(=O)N3CCN(Cc4ccccc4)CC3)c2)cc1		inconclusive: 0.891 µM [inhibitor, single point]
CCOC(=O)C1=C(C)NC(=O)NC1c1ccc(-c2ccccc2F)o1 (stereo not given)	inactive: -10.8%	
CCOCCCn1cc(C(=O)c2cc(Br)ccc2O)cc(C#N)c1=O	inactive: -26.7% [at 46.1 µM]	
Cc1onc(-c2ccccc2)c1C(=O)NC(=S)NNC(=O)c1ccccc1O		active: 3.16 µM
CC1CCC2C(=O)N(c3ccc(Cc4ccncc4)cc3)C(=O)C2C1 (stereo not given)		inconclusive: 5.62 µM [inhibitor, single point]
CCc1ccc2[nH]c(=O)c(CN(Cc3ccccc3OC)C(=O)Nc3ccccc3OC)cc2c1		inconclusive: 29.1 µM [inhibitor, single point]
CSc1cc(C)c(OCC(=O)Nc2c(C)nn(C)c2C)c(C)c1		inconclusive: 25.1 µM [inhibitor, single point]
CCn1ncc(-c2cc(C(=O)O)no2)c1C	inactive: 12.8% [at 46.1 µM]	
CCOc1ccc(C(=O)NCCN2CCCCC2)c(OCC)c1		inconclusive: 35.5 µM [inhibitor, single point]
CC(C)c1ccc(NC(=O)CCNC(=O)Cn2cnc3ccccc3c2=O)cc1		inconclusive: 35.5 µM [inhibitor, partial curve, poor fit]
COC(=O)c1ccccc1S(=O)(=O)N1CCC(C(=O)OCC(=O)NCC(F)(F)F)CC1		inconclusive: 0.891 µM [inhibitor, full curve, poor fit]
O=C(Nc1ccc(-n2cccn2)cc1)C1CCCCN1Cc1cccc2cccnc12 (stereo not given)		inconclusive: 11.2 µM [inhibitor, single point]
COc1cc2c(c(OC)c1OC)-c1ccc(SC)c(=O)cc1C(NC(=O)c1ccccc1)CC2 (stereo not given)		inconclusive: 0.0891 µM [inhibitor, full curve, poor fit]
Cc1ccc(-c2nnc(N3CCN(C(=O)COc4cccc(C)c4)CC3)c3ccccc23)cc1		inconclusive: 22.4 µM [inhibitor, single point]
COC(=O)C1CC23C=CCN4CCC5(c6ccccc6NC15C2C)C43 (stereo not given)		inconclusive: 15.8 µM [inhibitor, partial curve, poor fit]
CC1(C)CC(O)CC(C)(C)N1CC(O)COCc1ccccc1 (stereo not given)	inactive: -12.8% [at 46.1 µM]	
COc1ccccc1CNC(=O)C(C)Sc1ccsc1[N+](=O)[O-] (stereo not given)		inconclusive: 5.62 µM [activator, single point]
CC(=O)N=C1SC2CS(=O)(=O)CC2N1c1c(Cl)cccc1Cl (stereo not given)		inconclusive: 6.31 µM [activator, partial curve, poor fit]
CC[C@]1(C)CC(=O)NC1=O		inconclusive: 29.1 µM [activator, partial curve, poor fit]
CCOc1ccc(-n2nc3c(SCCN4CCCC4)nnc(C)c3c2C)cc1		inconclusive: 29.1 µM [inhibitor, single point]
COc1ccccc1NC(=O)C1=C(C)Nc2nc(SCc3ccccc3F)nn2C1c1ccncc1 (stereo not given)		inconclusive: 5.62 µM [activator, single point]
COc1ccc(C2=NOC(C(=O)N3CCOCC3)C2)cc1OC (stereo not given)		inconclusive: 0.092 µM [activator, partial curve, poor fit]
O=C(Nc1cccc(C(=O)N2CCCCC2)c1)C1CC1		inconclusive: 7.91 µM [activator, full curve, poor fit]

Structure (SMILES)	activity change, negative = inhibition	Potency
O=C(c1cccc(C(F)(F)F)c1)c1c[nH]c(C(=O)NCC2CCCO2)c1 (stereo not given)		inconclusive: 11.2 µM [inhibitor, single point]
Cc1cccc(NC(=O)CCN2CCC(C)CC2)c1		inconclusive: 2.82 µM [inhibitor, single point]
CCN1CCc2c(sc(NC(=S)NC(=O)c3ccco3)c2C(N)=O)C1	inactive: 28.1% [at 46.1 µM]	
CCOc1ccccc1NC(=O)C(=O)c1cc(C)n(-c2cccc(C)c2C)c1C		inconclusive: 22.4 µM [inhibitor, partial curve, poor fit]
CCOc1ccc(-c2cccc(NS(=O)(=O)c3ccccc3[N+](=O)[O-])c2)nn1	inactive: 12.5% [at 46.1 µM]	
O=C(CSc1nc(-c2ccccc2)ns1)N1CCOCC1		inconclusive: 5.01 µM [activator, partial curve]
CCc1ccc(NC(=O)c2cnc(N3CCN(c4ccccn4)CC3)c3ccccc23)cc1		inconclusive: 2 µM [inhibitor, full curve, poor fit]
O=C(CN1CCCCC1)NC(=O)Nc1ccccc1F		inconclusive: 10 µM [activator, partial curve, poor fit]
C/C(=N\NC(=O)c1cc(C(C)C)[nH]n1)c1ccncc1		inconclusive: 2.51 µM [activator, partial curve, poor fit]
N/C(=N\N=C\c1ccco1)SC1CC(=O)N(c2ccccc2)C1=O (stereo not given)		inconclusive: 0.251 µM [activator, full curve, poor fit]
CC(C)C1CC(C(F)(F)F)n2nc(C(=O)O)cc2N1 (stereo not given)		inconclusive: 3.16 µM [activator, single point]
CCOc1ccccc1C(=O)Nc1ccccc1-c1ccccc1		inconclusive: 31.6 µM [inhibitor, single point]
CC(C)c1ccc(NC(=O)C2CCN(S(=O)(=O)c3ccc(Br)s3)CC2)cc1	inactive: 1.24% [at 46.1 µM]	
COc1ccc(CNc2cccc(C)n2)c(O)c1	inactive: 4.19% [at 46.1 µM]	
Cc1cccnc1NC(=O)c1ccc2nc(N)sc2c1		inconclusive: 11.2 µM [activator, partial curve]
CNCCc1nc(N)n[nH]1		inactive
Cc1ccc(NC(=O)c2cc3nc(C)cc(C)n3n2)cc1		inconclusive: 16.4 µM [inhibitor, single point]
CC(=O)OC1(C(C)=O)CCC2C3CC(Cl)C4=CC(=O)CCC4(C)C3CCC21C (stereo not given)		inconclusive: 3.55 µM [inhibitor, partial curve, poor fit]
Cc1nnc(SCC(=O)Nc2cccc(S(=O)(=O)N(C)c3ccccc3)c2)s1	inactive: -19.5%	
COc1ccc(CCN(Cc2ccccn2)C(=S)Nc2ccccc2Cl)cc1OC	inactive: -18.2% [at 46.1 µM]	
COc1ccc(C2/C(=C(/O)c3ccc4c(c3)CC(C)O4)C(=O)C(=O)N2CCN2CCOCC2)cc1 (stereo not given)	inactive: -3.58%	

17 entries out of the list, ordered by length of the SMILES, high to low.
Structure (SMILES)	activity change, negative = inhibition	Potency
CCN(CC)C(=O)c1ccc(NC(=O)c2cccc(S(=O)(=O)N3CCN(Cc4ccccc4)CC3)c2)cc1		inconclusive: 0.891 µM [inhibitor, single point]
COc1ccc(C2/C(=C(/O)c3ccc4c(c3)CC(C)O4)C(=O)C(=O)N2CCN2CCOCC2)cc1 (stereo not given)	inactive: -3.58%	
CCOC(=O)N1CCc2c(sc3c2c(=O)n(-c2ccc(Cl)cc2)c(=O)n3CC(C)C)C1	inactive: 8.77% [at 46.1 µM]	
COc1ccc(NC(=O)c2oc3ccccc3c2NC(=O)Cc2coc3c(C)c(C)ccc23)cc1	inactive: -17.8% [at 46.1 µM]	
COC(=O)c1ccccc1S(=O)(=O)N1CCC(C(=O)OCC(=O)NCC(F)(F)F)CC1		inconclusive: 0.891 µM [inhibitor, full curve, poor fit]
COc1cc(-c2nnc(-c3cc(-c4ccccc4)nc4ccccc34)o2)cc(OC)c1OC	inactive: 0.559% [at 46.1 µM]	
CCCCC(CCCC)=N/N=C/c1c(O)n(CC)c2cc(C3=NNC(=O)CC3)ccc12		inconclusive: 1.12 µM [inhibitor, partial curve, poor fit]
CCc1ccc(NC(=O)c2cnc(N3CCN(c4ccccn4)CC3)c3ccccc23)cc1		inconclusive: 2 µM [inhibitor, full curve, poor fit]
CC(C)c1ccc(NC(=O)C2CCN(S(=O)(=O)c3ccc(Br)s3)CC2)cc1	inactive: 1.24% [at 46.1 µM]	
O=C(c1cccc(C(F)(F)F)c1)c1c[nH]c(C(=O)NCC2CCCO2)c1 (stereo not given)		inconclusive: 11.2 µM [inhibitor, single point]
CCOc1ccccc1NC(=O)C(=O)c1cc(C)n(-c2cccc(C)c2C)c1C		inconclusive: 22.4 µM [inhibitor, partial curve, poor fit]
N#C/C(=N\Nc1ccc(S(=O)(=O)N2CCOCC2)cc1)C(N)=S	inactive: 5.74% [at 46.1 µM]	
COC(=O)C1CC23C=CCN4CCC5(c6ccccc6NC15C2C)C43 (stereo not given)		inconclusive: 15.8 µM [inhibitor, partial curve, poor fit]
CC(=O)N=C1SC2CS(=O)(=O)CC2N1c1c(Cl)cccc1Cl (stereo not given)		inconclusive: 6.31 µM [activator, partial curve, poor fit]
Cc1ccc(S(=O)(=O)Nc2ccc(SC(F)F)cc2)c(C)c1	inactive: -12.3%	
O=C(CN1CCCCC1)NC(=O)Nc1ccccc1F		inconclusive: 10 µM [activator, partial curve, poor fit]
O=C(N/N=C/C=C/c1ccco1)c1cccs1	inactive: 12.6% [at 46.1 µM]	
